Reference: the supplement of paper PMC9135407
Several values for one entry are separate records, joined by “and”; a condition that tells them apart may be missing. Identical values can stand only once. ± gives the standard deviation of the averaged measurements. The list shows a part of the results. Part of the spread comes from offsets between plates or batches.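 Assay uses culture-activated primary human stellate myofibroblasts; lipid droplet recovery indicates inactivation. Measured: proportion of Hoechst-counted cells over a plate-specific Bodipy cutoff, duplicate wells, DMSO and nortriptyline as per-plate negative and positive controls. A hit scores, control-normalized, above the plate's top-tenth-percentile nortriptyline wells or ranks among its three best wells. Final well concentrations not reported.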

System: primary human hepatic stellate cells (donor 1)
Assay: percent Bodipy-positive cells; higher = more lipid droplet accumulation
Conditions: 48 h
[1] = library stock concentration: 10 mM
[2] = library stock concentration: 3.33 mM
[3] = library stock concentration: 1 mM

COc1cc2ncnc(Nc3cccc(Cl)c3)c2cc1OC [AG-1478 (Tyrphostin AG-1478)]
percent Bodipy-positive cells [1]: 80.2 ± 6.3%

CC(C)=CCC1=C(O)C(=O)c2ccccc2C1=O [Lapachol]
percent Bodipy-positive cells [1]: 43.1 ± 27%

CCCOc1ccccc1-c1nc2[nH]nnc2c(=O)[nH]1 [Zaprinast]
percent Bodipy-positive cells: 24.3 ± 3.3%
percent Bodipy-positive cells [1]: 14.8% and 14.3% and 7.7%
percent Bodipy-positive cells (library stock concentration: 18.4 mM): 13.5 ± 0.4%

CCCCCCNC(=O)n1cc(F)c(=O)[nH]c1=O [Carmofur]
percent Bodipy-positive cells [2]: 9.82 ± 2.8%

COc1cccc2c1C(=O)c1c(O)c3c(c(O)c1C2=O)C[C@@](O)(C(=O)CO)C[C@@H]3O[C@H]1C[C@H](N)[C@H](O[C@@H]2CCCCO2)[C@H](C)O1 [Pirarubicin]
percent Bodipy-positive cells [2]: 100%
percent Bodipy-positive cells [1]: 100%

O=C1NC(=O)C(c2cnc3ccccn23)=C1c1cn2c3c(cc(F)cc13)CN(C(=O)N1CCCCC1)CC2
percent Bodipy-positive cells (library stock concentration: 80 uM): 63.9 ± 3%
percent Bodipy-positive cells [1]: 59.8 ± 3.3%

O=C(O)CCC/C=C/C[C@@H]1[C@@H](CC[C@@H](O)CCc2ccccc2)[C@H](O)C[C@@H]1O [5-trans Latanoprost (free acid)]
percent Bodipy-positive cells [3]: 10.8 ± 2.4%

COC(=O)C1=CO[C@@H](O)[C@@H]2C(CO)=CC[C@H]12 [Genipin]
percent Bodipy-positive cells [2]: 8.24 ± 0.74%

Cc1nc(C(=O)NCC(=O)O)c(O)c2ccc(Oc3ccccc3)cc12
percent Bodipy-positive cells [2]: 6.51 ± 0.6%
percent Bodipy-positive cells [1]: 21 ± 10%

C=C1C(=O)OC2CC1C(OC(C)=O)C/C(C)=C/CC/C(C)=C/CC[C@]2(C)O (some centres not stated) [Crassin acetate]
percent Bodipy-positive cells [1]: 86.2 ± 2%

COc1cc(COc2cc(N)c(Cl)cc2C(=O)CCC2CCN(CCNS(C)(=O)=O)CC2)cc(OC)c1.Cl
percent Bodipy-positive cells [1]: 99.2 ± 1.1%

CCCCCCCCCCCCCCC[C@@H](O)[C@H](CO)NC(=O)CCCCCCC [C8 Dihydroceramide]
percent Bodipy-positive cells [3]: 12.7 ± 7.1%

CN1CCN(c2nc3cc(C(F)(F)F)ccc3n3cccc23)CC1.O=C(O)/C=C\C(=O)O
percent Bodipy-positive cells [1]: 84.53 ± 0.51%

CN(C(=O)CN(CCO)CC(=O)N(C)C(C)(C)Cc1ccccc1)C(C)(C)Cc1ccccc1 [Oxethazaine]
percent Bodipy-positive cells: 42.9 ± 8%
percent Bodipy-positive cells [1]: 35 ± 5.5%

COC(=O)N/N=C/c1c[n+]([O-])c2ccccc2[n+]1[O-] [Carbadox]
percent Bodipy-positive cells (library stock concentration: 7.6 mM): 11.7% and 8.92%
percent Bodipy-positive cells [1]: 44.3 ± 5.8%

CC(C)(Oc1ccc(Cl)cc1)C(=O)OCCOC(=O)c1cccnc1 [Etofibrate]
percent Bodipy-positive cells [2]: 13.5 ± 2.5%
percent Bodipy-positive cells [1]: 37.6 ± 13%

CC1(C)O[C@@H]2C[C@H]3[C@@H]4C[C@H](F)C5=CC(=O)C=C[C@]5(C)[C@@]4(F)[C@@H](O)C[C@]3(C)[C@]2(C(=O)CO)O1 [Fluocinolone Acetonide]
percent Bodipy-positive cells [2]: 6.16 ± 2.8%
percent Bodipy-positive cells [1]: 15.2 ± 0.22%

CC1(C)O[C@@H]2C[C@H]3[C@@H]4C[C@H](F)C5=CC(=O)C=C[C@]5(C)[C@@]4(F)[C@@H](O)C[C@]3(C)[C@]2(C(=O)CO)O1 [Fluocinolone acetonide]
percent Bodipy-positive cells (library stock concentration: 4.4 mM): 6.72% and 3.96%
